According to the supplement of paper PMC5949888:
Most values lie at the floor of the assay. Slopes are relative: functional sequences can read slightly below zero.

System: Saccharomyces cerevisiae PS128 hsf1 delta, HSF1(1-493) fusion
Assay: growth estimate (transactivation domain function in HSF1 fusion, heat-shock survival) (a.u. (slope of normalised read count over time)); higher = stronger growth at 37°C, i.e. more transactivation activity
Conditions: library: random library

Substance | growth estimate
FGSVRINFKSGRCIQEGETS | < -0.25
LWEP | < -0.25
SPTRARCMQVNLLKRL | < -0.25
NPWTIGKCSGGERGKSLIHE | -0.25
APERSY | < -0.25
YYWSACRSLRPPAAQNAFRT | < -0.25
DGRTMGKVMARRLEMK | < -0.25
GDPGAYWLWSINWNSKEPLS | -0.0959
GDVVRRSAIEG | < -0.25
ARLPVLEVARVLKRGWSRAP | < -0.25
RPRP | < -0.25
GPKPSGEGMKSAGIAVSLES | < -0.25
REGEIRHLRPLNPCSA | < -0.25
VRCMGCPPWTLCRG | -0.229
FFEFSVMGPSPSEAVSDRKN | < -0.25
VRIP | < -0.25
GGLKAFRRGFVTARFLQARQ | < -0.25
SARSPVYKKE | < -0.25
VGGMSPFTRKWYPEKPLLTA | < -0.25
SDIGVG | < -0.25
RPALVVTGGRSGLHES | < -0.25
YETGMDKPRW | < -0.25
LGLRFG | < -0.25
SRRRRETLSGFRPP | < -0.25
SPSALIFASQEVRQSMKKLW | < -0.253

Substance | growth estimate
DFGWWTGWAWQSRHHSEAEW | -0.122
RRSAVSQVWMGSHQIGRPGR | < -0.25
MYIRQDRAAS | < -0.25
STSLVRYLDRNILRVVSK | < -0.25
DVCGADKRAKIDVHIGVWSV | 0.021
GTT | < -0.25
QFLSIH | < -0.25
GPQVSRPIG | < -0.25
IIVRTPTLEWPYGRHHDAVH | < -0.25
QTVVRRIKVTLSCVIGSVCP | < -0.25
RLRA | -0.199
GPGRCYTSVRSPYDRQALFW | < -0.25
RQCLTRFCGNGVTIG | < -0.25
MWLS | < -0.25
GLMEGSSALGLKAMQ | < -0.25
REFAG | < -0.25
YSLRVKISMMRDMPIIV | < -0.25
LPTLVHWRQRARHAAPFRDV | < -0.25
HVNRGKQAGIITAVLAPVSH | < -0.25
SRCPTKVTSKGIGF | < -0.25
SARSG | < -0.25
GEGRSYVLKECGL | < -0.25
FKTGRQCR | < -0.25
PLVIRVISSKTRPAVSCPHK | < -0.25
GGGACTSRTSSKHSSRLSHR | < -0.25

Substance | growth estimate
GTEAAGNIPVVFP | < -0.25
WRG | < -0.25
CGAGSIHLSVHILQSPQGVP | < -0.25
TSNWIWHPRSWIELRPC | < -0.25
ADIQTVSEMLDRKVNAANRK | < -0.25
GKHVGDNTPFVIMWHGGVCQ | < -0.25
RCIAESIRSIKLFEVDGALM | < -0.25
KTIISSRVLASTLGFN | < -0.25
QRLWCYKLYYPSVDTGGHVT | < -0.25
ASRTGAHPCLVPAVMELLTC | < -0.25
HVSSTNLLS | < -0.25
CRIVTYIRQYLC | < -0.25
VRTSQR | -0.25
DSNIVNRFRASRGRAVARVM | < -0.25
HEFKCRYRTR | < -0.25
ERVVVPAVRQGNPVRIAALS | < -0.25
LLPRS | < -0.25
EDSGQETSEGLISGNIVSFS | -0.198
LEMEIDWLSGFSRCISLVSS | < -0.25
TYQRSWA | < -0.25
YQAACK | < -0.25
LGRDRVWHEAGTYPMERP | -0.229
GSCLVGADGLVETERAVVFG | < -0.25
PPRVKRGGYICPHAAYR | < -0.25
LMLRRVGHSFAKST | < -0.25

Substance | growth estimate
SGVKMEVVTVGT | < -0.25
HRPISTIYERLGTLSES | < -0.25
SGNGSRSERALWMFQ | < -0.25
GYCRPQPFQVHDPCRAVIMR | < -0.25
QGD | < -0.25
VTHTVPQT | < -0.25
PKVGWTMLSGRMGLFVPAP | < -0.25
RNQHS | < -0.25
GVSTSVYGRPYE | < -0.25
PCASL | < -0.25
SHGWVCCGIYKWGCHGIVG | < -0.25
VVTIVRGATIACRDRFCTPP | < -0.25
LGDTLWLA | -0.248
LRRGTSKANPTDWFTSLAK | < -0.25
VAESFLGRLHPIDVTCSLPR | < -0.25
SLHGKSRIGFIPSGGI | < -0.25
HGGGQIHGKFP | < -0.25
SSFRGRQPP | < -0.25
LAEVARKEEKPAGGSCRGIG | < -0.25
DNSIGESGIIRRYEIVTELA | < -0.25
WGELFFIWCPDNARMTGYAP | < -0.25
APPQLFHWGQSNIESANCRH | < -0.25
QGGYDLGWRVSSAKSRKPCG | < -0.25
LVFHAPRSIARAPWSTSLPS | 0.0112
CGGVMAGMGLGTGSHLCEL | < -0.25

Substance | growth estimate
TQHTWPRLAQKHCMRGTGTF | < -0.25
NISSSTLKGSMIARIRSFCE | < -0.25
AIAVWSLDLYPLRLRSCAIV | < -0.25
DFNRPFSRECVIDIFIIPHY | < -0.25
PFGKAIAYGMGFDAGRGGAS | < -0.25
LASNLVHWSK | < -0.25
TRVICCITI | < -0.25
ADSMGLRVCVKL | < -0.25
LGDHKLVLIQP | < -0.25
LQVCAVNRV | < -0.25
LFGEGSWLGCFS | < -0.25
CGINLLHAGSPDVLAMKSFT | < -0.25
PSGEGELDPIASRGSMDPGI | < -0.25
SFRAYQYQGTDRSLSVNCRN | < -0.25
RYRDNRLSQSFSHSLAKPAH | < -0.25
RADRVKEW | < -0.25
RSF | < -0.25
RHTCQALLPYA | < -0.25
GQDIQVDILGRPEFIHAAFD | < -0.25
QKLYL | < -0.25
GHNERLGQHGPPIWMHVGSS | < -0.25
SLIPKMREILVTSAPPLRTV | < -0.25
CPGGAVRIDSIGIGVIKADT | < -0.25
LRDGKLVLGII | -0.245
CVYLPFGATIMPSWKRGARG | < -0.25

Another view of part of the listing above:
Substance	growth estimate
REGEIRHLRPLNPCSA	< -0.25
VRCMGCPPWTLCRG	-0.229
FFEFSVMGPSPSEAVSDRKN	< -0.25
VRIP	< -0.25
GGLKAFRRGFVTARFLQARQ	< -0.25
SARSPVYKKE	< -0.25
VGGMSPFTRKWYPEKPLLTA	< -0.25
SDIGVG	< -0.25
RPALVVTGGRSGLHES	< -0.25
YETGMDKPRW	< -0.25
LGLRFG	< -0.25
SRRRRETLSGFRPP	< -0.25
SPSALIFASQEVRQSMKKLW	< -0.253
DFGWWTGWAWQSRHHSEAEW	-0.122
RRSAVSQVWMGSHQIGRPGR	< -0.25
MYIRQDRAAS	< -0.25
STSLVRYLDRNILRVVSK	< -0.25
DVCGADKRAKIDVHIGVWSV	0.021
GTT	< -0.25
QFLSIH	< -0.25
GPQVSRPIG	< -0.25
IIVRTPTLEWPYGRHHDAVH	< -0.25
QTVVRRIKVTLSCVIGSVCP	< -0.25
RLRA	-0.199
GPGRCYTSVRSPYDRQALFW	< -0.25
RQCLTRFCGNGVTIG	< -0.25
MWLS	< -0.25
GLMEGSSALGLKAMQ	< -0.25
REFAG	< -0.25
YSLRVKISMMRDMPIIV	< -0.25
LPTLVHWRQRARHAAPFRDV	< -0.25
HVNRGKQAGIITAVLAPVSH	< -0.25
SRCPTKVTSKGIGF	< -0.25
SARSG	< -0.25
GEGRSYVLKECGL	< -0.25
FKTGRQCR	< -0.25
PLVIRVISSKTRPAVSCPHK	< -0.25
GGGACTSRTSSKHSSRLSHR	< -0.25
GTEAAGNIPVVFP	< -0.25
WRG	< -0.25
CGAGSIHLSVHILQSPQGVP	< -0.25
TSNWIWHPRSWIELRPC	< -0.25
ADIQTVSEMLDRKVNAANRK	< -0.25
GKHVGDNTPFVIMWHGGVCQ	< -0.25
RCIAESIRSIKLFEVDGALM	< -0.25
KTIISSRVLASTLGFN	< -0.25
QRLWCYKLYYPSVDTGGHVT	< -0.25

Next records follow.

Substance | growth estimate
LPRPNLSGVPIVVTKGARDR | < -0.25
RRASM | < -0.25
RPNFAL | < -0.25
DIMCGRSN | < -0.25
RCNGI | < -0.25
SGARHPVGNLFSRAKGQ | < -0.25
CRRRSSLNYRHVRSHQPSTS | < -0.25
STRWMGTMVADYLKQCVQVP | < -0.25
GWRGKSGFWCATRTL | < -0.25
VSGPATIAVPYWWGERCR | < -0.25
VRRGSGLLC | < -0.25
GPALLSIASRKGFFCVVQVV | < -0.25
LCRRLRTYYHGREAAHGSL | < -0.25
NPL | < -0.25
IIIRNTVTGAFAGKNEGLRI | < -0.25
RRYSSRHSVLGSSLSKPLSV | -0.245
PWNAGKRAMFYDPYLGIHSS | < -0.25
NIVNGFATCIAVSGL | < -0.25
LRSPYSP | < -0.25
VSIVEPTRRAGKFQLHS | < -0.25
SSMTAPLLGRNSASIVISAG | < -0.25
AQRLLGSSTIVQSGSAIHSV | < -0.25
RFVKYTVVEPRGLRVRGS | -0.245
PSARVRQSLERVPSIGSDRF | < -0.25
KCDSPGVKVSGLLGMSL | < -0.25

Substance | growth estimate
FGLR | < -0.25
INRVK | < -0.25
VLATGRLTKILFPKDPLLLP | < -0.25
GYGSSIYSDGWQTVTLRVRG | < -0.25
NLAHQR | < -0.25
LPSEQAITEV | < -0.25
VSAYRAVKMLLG | < -0.25
YSTSIVQPYAALYCGIVPSA | < -0.25
SGIGYYPRGAALCNHLLVSP | < -0.25
IASLWIESGVLWVNNYSARW | < -0.25
RCTTAPGPGASASQI | < -0.25
VSELAAVIT | < -0.25
ILKVWSALRPDTRMSMGPLP | < -0.25
GISLTLTSESGILAK | < -0.25
RIMYFP | < -0.25
HVRVLD | < -0.25
QQATSVSNR | < -0.25
KGIALRRFTGVCNEQFGAVG | < -0.25
QLRCICVLIRWAVCR | -0.219
GRTLPFGCL | < -0.25
DLGTFDDLDLGQHLTDPRAD | < -0.25
YGYVYNPYLMEKLGRRATVG | -0.248
VHRGTCRGFFVLRVSAPQ | < -0.25
SKDRQKLWNANW | -0.231
CLGARAIR | -0.25

As a short view, some entries already given:
Substance | growth estimate
SGIGYYPRGAALCNHLLVSP | < -0.25
IASLWIESGVLWVNNYSARW | < -0.25

Next results follow.

Substance | growth estimate
YTIY | < -0.25
FCSSEYKVQHSSGHGWNAVG | < -0.25
VERCSGQCPCS | < -0.25
CQHPGC | < -0.25
DRCHTGGHNEVTVVGRRDAQ | < -0.25
GRLLVC | < -0.25
TALWDWRSVGYTAGKQNPTV | < -0.25
GAISDVNQKTGPLAYAGNHH | < -0.25
TKSRVNIETNYELAPDQTDY | < -0.25
LVSVRRSTRFALMKEVSPVG | < -0.25
IPVRDANLRERPELGNNLGG | < -0.25
AISVHSDNNCQEKCLHLRSI | < -0.25
QSAL | < -0.25
GLGI | < -0.25
AGLHAVDSSPR | < -0.25
NSTSHRVMAMSPVIPWRRV | < -0.25
SQRSRM | < -0.25
IKRGRTSVITAKIAHTKNSR | < -0.25
ADVVSSRNQRKRPPQNISNT | < -0.25
HPTRGPHAD | < -0.25
VYYDMPRTVSC | < -0.25
FYGVV | < -0.25
YITETRRGSGLRT | < -0.25
GEVSQGVLAFWLFKACIRRG | < -0.25
QSTSGLP | < -0.25
